Source: patent publication US20240002438A1, “MELANOCORTIN LIGANDS AND METHODS OF USE THEREOF” (REGENTS OF THE UNIVERSITY OF MINNESOTA, priority 2021, published 2024)
Some of these results come from one statement about several compounds together. For some assays here: At least one structure is not confirmed: it was looked up by name or label, or the drawing left a doubt. Where a SMILES comes first, the peptide text is derived from it. [ ]: non-standard residue; d: D form. dPhe(4-I) = N[C@H](Cc1ccc(I)cc1)C(=O)O; d2Nal = N[C@H](Cc1ccc2ccccc2c1)C(=O)O

The chains behind the UniProt entries cited, without tags or fusion partners. Where a name states a change or a piece, a line headed by the entry shows the natural chain unless it says otherwise.
UniProt Q01727: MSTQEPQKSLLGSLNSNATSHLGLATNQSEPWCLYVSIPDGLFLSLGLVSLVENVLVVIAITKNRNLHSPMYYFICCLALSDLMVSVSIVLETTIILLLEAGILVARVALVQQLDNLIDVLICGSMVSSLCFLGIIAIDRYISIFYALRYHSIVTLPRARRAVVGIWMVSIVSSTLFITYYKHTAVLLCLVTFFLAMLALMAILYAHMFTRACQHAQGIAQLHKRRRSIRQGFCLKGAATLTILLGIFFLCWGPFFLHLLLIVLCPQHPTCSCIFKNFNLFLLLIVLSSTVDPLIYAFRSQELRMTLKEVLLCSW
UniProt P56450, whole entry: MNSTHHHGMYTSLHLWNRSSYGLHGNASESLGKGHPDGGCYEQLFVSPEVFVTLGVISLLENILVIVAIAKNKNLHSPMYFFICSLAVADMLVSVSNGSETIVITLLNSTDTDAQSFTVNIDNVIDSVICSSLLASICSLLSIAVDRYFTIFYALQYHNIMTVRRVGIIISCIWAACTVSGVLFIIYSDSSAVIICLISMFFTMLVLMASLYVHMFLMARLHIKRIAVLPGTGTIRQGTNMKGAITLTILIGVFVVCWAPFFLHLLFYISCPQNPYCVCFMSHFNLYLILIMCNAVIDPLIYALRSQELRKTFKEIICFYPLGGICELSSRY

Legend:
[1] = target: mMC1R (Mus musculus, UniProt Q01727); settings: read-out: mMC1R agonist EC50
[2] = target: mMC4R (Mus musculus, UniProt P56450); experiment: cAMP AlphaScreen antagonist assay at mMC4R, NDP-MSH as agonist, HEK293 cells; settings: from antagonist pA2 values

Compound | EC50 [1] [µM] | selectivity for the mMC4R over the mMC3R [2]
CC(=O)N[C@H](Cc1ccc(I)cc1)C(=O)N[C@@H](CCCNC(=N)N)C(=O)N[C@@H](Cc1c[nH]c2ccccc12)C(=O)N[C@@H](CCCNC(=N)N)C(N)=O [compound 42, Ac-DPhe(pI)-Arg-Trp-Arg-NH2] (Ac-[dPhe(4-I)]RWR-NH2) | 0.4 to 7.9 | –
Ac-[d2Nal]RW[dK]-NH2 [compound 16] | – | more than 150 fold
